# The supplement of paper PMC10032668
# Sequences of proteins named here, by UniProt entry; tags and fusion partners are left off.
# ATP6V0D1, P61421, UniProt P61421, whole entry: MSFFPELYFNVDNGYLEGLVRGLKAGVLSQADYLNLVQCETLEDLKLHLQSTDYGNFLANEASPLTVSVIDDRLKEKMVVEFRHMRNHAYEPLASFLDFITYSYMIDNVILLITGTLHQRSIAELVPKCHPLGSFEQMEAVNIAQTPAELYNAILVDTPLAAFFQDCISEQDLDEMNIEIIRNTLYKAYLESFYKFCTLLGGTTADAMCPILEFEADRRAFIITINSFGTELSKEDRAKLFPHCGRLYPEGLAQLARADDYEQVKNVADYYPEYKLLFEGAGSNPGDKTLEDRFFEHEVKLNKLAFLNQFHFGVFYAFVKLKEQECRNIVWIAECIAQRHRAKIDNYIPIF
# DYNC1H1, Q14204, UniProt Q14204, whole entry: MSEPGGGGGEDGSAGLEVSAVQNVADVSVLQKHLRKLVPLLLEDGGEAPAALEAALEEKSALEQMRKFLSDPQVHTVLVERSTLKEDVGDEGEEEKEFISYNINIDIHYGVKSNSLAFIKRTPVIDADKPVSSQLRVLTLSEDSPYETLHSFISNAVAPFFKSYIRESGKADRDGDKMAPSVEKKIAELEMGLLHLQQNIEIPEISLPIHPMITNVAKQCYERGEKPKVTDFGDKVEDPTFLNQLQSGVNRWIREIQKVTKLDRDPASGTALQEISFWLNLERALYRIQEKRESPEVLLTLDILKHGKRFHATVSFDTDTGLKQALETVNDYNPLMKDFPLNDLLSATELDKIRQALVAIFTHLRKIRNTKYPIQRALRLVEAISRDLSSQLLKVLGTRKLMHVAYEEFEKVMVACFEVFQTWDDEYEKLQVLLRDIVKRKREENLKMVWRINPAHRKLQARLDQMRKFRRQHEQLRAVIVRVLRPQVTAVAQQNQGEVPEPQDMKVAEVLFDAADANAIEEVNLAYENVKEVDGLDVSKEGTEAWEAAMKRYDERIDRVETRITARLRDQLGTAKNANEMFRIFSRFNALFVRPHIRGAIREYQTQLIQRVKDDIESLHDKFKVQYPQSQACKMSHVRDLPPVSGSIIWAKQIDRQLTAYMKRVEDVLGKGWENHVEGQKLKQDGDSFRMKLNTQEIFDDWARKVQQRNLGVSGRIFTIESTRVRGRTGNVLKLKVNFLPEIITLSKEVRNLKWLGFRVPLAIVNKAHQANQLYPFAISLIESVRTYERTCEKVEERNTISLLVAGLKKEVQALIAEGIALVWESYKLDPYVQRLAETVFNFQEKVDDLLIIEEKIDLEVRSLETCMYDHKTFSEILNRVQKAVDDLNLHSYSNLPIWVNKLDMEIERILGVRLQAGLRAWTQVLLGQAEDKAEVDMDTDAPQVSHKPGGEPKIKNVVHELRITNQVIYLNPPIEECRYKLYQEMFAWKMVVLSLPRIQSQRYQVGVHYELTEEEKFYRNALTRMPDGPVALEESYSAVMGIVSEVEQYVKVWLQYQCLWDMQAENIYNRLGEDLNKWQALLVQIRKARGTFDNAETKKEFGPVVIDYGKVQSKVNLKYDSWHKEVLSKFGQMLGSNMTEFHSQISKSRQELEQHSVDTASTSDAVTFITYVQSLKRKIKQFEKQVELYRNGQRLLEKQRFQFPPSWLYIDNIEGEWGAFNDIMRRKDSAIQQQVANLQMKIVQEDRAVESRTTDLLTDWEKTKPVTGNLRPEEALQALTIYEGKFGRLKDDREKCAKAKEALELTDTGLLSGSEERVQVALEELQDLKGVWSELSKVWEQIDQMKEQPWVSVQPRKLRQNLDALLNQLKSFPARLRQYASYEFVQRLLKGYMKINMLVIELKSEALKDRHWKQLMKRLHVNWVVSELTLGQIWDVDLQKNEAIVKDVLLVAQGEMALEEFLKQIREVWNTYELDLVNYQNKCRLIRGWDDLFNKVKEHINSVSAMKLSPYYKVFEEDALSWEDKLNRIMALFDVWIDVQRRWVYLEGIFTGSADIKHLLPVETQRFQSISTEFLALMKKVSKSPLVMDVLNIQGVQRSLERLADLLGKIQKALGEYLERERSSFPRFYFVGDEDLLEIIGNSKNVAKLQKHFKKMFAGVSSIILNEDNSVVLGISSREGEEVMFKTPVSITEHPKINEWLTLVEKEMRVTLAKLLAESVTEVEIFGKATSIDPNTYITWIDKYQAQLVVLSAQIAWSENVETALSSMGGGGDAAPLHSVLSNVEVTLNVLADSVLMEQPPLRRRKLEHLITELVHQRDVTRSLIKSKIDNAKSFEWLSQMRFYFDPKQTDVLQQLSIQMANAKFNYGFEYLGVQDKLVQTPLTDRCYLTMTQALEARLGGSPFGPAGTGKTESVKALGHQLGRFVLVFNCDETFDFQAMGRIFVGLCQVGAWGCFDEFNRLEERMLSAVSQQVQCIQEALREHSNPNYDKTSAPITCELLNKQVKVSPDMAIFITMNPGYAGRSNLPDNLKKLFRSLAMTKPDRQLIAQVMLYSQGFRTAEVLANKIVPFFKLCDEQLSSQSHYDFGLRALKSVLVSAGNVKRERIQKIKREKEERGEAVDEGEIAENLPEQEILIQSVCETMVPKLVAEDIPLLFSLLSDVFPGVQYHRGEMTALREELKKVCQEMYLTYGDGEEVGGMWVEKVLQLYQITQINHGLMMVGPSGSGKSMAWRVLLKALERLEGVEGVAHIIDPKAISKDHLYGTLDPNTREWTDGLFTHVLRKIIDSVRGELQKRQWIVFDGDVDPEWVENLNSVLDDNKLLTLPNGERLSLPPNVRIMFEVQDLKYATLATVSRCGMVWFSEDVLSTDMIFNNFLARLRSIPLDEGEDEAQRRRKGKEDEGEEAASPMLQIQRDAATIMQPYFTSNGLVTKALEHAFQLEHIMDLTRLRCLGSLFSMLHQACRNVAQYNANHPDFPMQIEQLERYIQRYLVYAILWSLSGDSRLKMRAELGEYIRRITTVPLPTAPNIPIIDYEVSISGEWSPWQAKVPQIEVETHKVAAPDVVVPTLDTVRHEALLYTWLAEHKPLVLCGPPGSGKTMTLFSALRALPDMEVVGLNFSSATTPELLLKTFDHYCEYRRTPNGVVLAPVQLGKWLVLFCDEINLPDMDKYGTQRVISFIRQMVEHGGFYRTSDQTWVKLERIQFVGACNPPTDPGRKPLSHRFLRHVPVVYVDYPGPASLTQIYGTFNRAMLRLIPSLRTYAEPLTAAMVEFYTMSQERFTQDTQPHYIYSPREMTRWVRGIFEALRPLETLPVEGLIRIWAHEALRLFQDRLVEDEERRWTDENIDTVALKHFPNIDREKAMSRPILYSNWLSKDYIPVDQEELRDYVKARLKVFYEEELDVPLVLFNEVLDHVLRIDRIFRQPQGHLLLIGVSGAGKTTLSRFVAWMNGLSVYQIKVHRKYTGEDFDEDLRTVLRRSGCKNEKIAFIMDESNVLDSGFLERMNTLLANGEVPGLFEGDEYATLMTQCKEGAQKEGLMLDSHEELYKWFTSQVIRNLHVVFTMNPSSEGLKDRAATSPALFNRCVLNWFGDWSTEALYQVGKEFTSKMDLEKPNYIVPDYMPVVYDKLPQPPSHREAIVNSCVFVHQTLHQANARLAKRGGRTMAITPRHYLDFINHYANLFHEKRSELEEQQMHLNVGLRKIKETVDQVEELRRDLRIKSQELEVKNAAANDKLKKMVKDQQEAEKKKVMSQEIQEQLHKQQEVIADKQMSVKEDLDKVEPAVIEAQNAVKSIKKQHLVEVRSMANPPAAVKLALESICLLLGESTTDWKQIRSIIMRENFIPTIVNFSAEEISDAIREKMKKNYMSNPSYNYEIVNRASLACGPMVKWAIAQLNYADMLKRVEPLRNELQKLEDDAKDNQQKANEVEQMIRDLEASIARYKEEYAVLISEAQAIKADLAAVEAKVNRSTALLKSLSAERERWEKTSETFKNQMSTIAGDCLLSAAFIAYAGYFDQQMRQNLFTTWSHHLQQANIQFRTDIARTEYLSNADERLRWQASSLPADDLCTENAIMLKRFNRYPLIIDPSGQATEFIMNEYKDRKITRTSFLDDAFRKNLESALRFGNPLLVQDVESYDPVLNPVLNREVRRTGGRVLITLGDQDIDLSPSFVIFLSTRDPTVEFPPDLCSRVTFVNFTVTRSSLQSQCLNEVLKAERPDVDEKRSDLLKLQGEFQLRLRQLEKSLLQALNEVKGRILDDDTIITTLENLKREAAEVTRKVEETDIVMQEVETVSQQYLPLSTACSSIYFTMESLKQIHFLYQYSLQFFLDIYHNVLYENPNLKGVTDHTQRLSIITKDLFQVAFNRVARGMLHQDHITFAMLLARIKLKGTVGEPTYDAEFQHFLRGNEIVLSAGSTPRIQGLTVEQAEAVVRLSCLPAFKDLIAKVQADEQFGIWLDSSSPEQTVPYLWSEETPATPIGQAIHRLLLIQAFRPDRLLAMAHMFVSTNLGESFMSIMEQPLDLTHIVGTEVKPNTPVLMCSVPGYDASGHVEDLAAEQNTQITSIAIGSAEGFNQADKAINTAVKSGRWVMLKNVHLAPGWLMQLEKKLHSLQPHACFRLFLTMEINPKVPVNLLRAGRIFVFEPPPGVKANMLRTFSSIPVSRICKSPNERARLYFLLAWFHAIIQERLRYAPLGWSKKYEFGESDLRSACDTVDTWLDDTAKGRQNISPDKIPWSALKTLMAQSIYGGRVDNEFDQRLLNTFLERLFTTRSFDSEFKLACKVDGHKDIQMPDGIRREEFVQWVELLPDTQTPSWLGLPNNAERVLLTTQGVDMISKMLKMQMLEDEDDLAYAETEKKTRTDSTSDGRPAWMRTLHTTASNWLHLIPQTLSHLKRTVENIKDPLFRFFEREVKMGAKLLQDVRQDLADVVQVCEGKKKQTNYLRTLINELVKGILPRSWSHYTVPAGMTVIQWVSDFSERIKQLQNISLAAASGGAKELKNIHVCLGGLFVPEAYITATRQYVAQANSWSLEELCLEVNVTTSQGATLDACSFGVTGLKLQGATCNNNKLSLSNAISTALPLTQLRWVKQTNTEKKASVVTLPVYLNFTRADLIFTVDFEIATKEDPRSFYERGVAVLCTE
# USP10, Q14694, UniProt Q14694, whole entry: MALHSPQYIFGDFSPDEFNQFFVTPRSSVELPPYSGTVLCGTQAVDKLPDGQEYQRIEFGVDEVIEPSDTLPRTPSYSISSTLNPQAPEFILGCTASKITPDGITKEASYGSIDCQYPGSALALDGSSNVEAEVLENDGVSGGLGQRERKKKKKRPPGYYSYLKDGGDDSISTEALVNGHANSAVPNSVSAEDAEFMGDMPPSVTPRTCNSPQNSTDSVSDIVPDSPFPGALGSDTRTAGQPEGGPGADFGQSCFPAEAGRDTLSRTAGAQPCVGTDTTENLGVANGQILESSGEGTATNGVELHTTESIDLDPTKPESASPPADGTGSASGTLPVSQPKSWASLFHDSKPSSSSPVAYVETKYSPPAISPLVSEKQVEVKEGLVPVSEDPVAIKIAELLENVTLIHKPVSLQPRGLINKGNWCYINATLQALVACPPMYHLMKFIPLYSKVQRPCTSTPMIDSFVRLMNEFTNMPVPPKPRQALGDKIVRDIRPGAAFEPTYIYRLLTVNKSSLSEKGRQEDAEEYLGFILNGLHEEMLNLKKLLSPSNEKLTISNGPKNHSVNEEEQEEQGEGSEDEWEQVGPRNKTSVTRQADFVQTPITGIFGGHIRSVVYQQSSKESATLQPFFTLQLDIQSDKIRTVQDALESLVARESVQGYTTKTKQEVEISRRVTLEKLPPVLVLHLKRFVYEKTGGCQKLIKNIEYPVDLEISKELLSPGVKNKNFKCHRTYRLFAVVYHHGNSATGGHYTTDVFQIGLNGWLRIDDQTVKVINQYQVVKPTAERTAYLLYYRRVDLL
# ATP6V1F, Q16864, UniProt Q16864, whole entry: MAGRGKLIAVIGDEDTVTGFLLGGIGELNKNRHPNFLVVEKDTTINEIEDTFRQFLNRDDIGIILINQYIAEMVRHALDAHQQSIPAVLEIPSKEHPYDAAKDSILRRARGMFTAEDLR
# CFL1, P23528, UniProt P23528, whole entry: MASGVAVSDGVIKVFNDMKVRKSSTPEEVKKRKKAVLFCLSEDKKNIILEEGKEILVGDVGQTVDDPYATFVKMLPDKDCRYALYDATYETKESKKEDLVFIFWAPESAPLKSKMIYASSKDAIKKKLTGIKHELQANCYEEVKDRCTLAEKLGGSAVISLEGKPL
# EIF3G, O75821, UniProt O75821, whole entry: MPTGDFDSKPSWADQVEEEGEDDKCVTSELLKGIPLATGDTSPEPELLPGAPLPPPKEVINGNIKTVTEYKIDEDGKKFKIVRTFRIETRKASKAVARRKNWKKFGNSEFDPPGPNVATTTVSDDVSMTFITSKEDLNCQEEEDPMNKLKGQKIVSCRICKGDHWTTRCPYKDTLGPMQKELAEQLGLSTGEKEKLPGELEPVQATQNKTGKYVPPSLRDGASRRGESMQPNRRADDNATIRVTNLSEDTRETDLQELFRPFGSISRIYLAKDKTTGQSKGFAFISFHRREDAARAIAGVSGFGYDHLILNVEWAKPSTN
# The list shows a part of the results. The list holds hits alone, and they repeat only in part.
# Assays:
# Assay in all cases: PRISMA enrichment of interactor (LFQ) in peptide spot vs all other peptide spots (log2 fold change); higher = stronger / more specific binding of the interactor to the peptide
# [1] = molecular target: ABCF2, Q9UG63
# Method: (§1)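 PRISMA: 15-aa overlapping tiles (offset 8 aa) of 60 microproteins, plus SOS1/GLUT1 control peptides, were spot-synthesized on cellulose membranes in triplicate. Membranes were incubated with benzonase-treated HEK293T lysate, and bound proteins were identified by LC-MS/MS with LFQ. Enrichment is the log2 fold change of each protein in one spot versus all other spots. Only interactors passing the significance cutoff are listed.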
# [2] = molecular target: ARHGEF2, Q92974
# Method: as §1
# [3] = molecular target: ARMC6, Q6NXE6
# Method: as §1
# [4] = molecular target: ATP6V0D1, P61421
# Method: as §1
# [5] = molecular target: BOLA2, Q9H3K6
# Method: as §1
# [6] = molecular target: BZW2, Q9Y6E2
# Method: as §1
# [7] = molecular target: CC2D1A, Q6P1N0
# Method: as §1
# [8] = molecular target: CTPS1, P17812
# Method: as §1
# [9] = molecular target: DNAJC14, Q6Y2X3
# Method: as §1
# [10] = molecular target: DYNC1H1, Q14204
# Method: as §1
# [11] = molecular target: MRM3, Q9HC36
# Method: as §1
# [12] = molecular target: MRPS34, P82930
# Method: as §1
# [13] = molecular target: MSH2, P43246
# Method: as §1
# [14] = molecular target: NUSAP1, Q9BXS6
# Method: as §1
# [15] = molecular target: PELP1, Q8IZL8
# Method: as §1
# [16] = molecular target: POLR2A, P24928
# Method: as §1
# [17] = molecular target: SART1, O43290
# Method: as §1
# [18] = molecular target: ABCF1, Q8NE71
# Method: as §1
# [19] = molecular target: C11orf98, E9PRG8
# Method: as §1
# [20] = molecular target: CALD1, Q05682
# Method: as §1
# [21] = molecular target: CCDC59, Q9P031
# Method: as §1
# [22] = molecular target: CCDC86, Q9H6F5
# Method: as §1
# [23] = molecular target: CHMP2B, Q9UQN3
# Method: as §1
# [24] = molecular target: DDX6, P26196
# Method: as §1
# [25] = molecular target: LETM1, O95202
# Method: as §1
# [26] = molecular target: NOL7, Q9UMY1
# Method: as §1
# [27] = molecular target: SLC39A7, Q92504
# Method: as §1
# [28] = molecular target: TFB1M, Q8WVM0
# Method: as §1
# [29] = molecular target: USP10, Q14694
# Method: as §1
# [30] = molecular target: XPOT, O43592
# Method: as §1
# [31] = molecular target: ATP6V1F, Q16864
# Method: as §1
# [32] = molecular target: CFL1, P23528
# Method: as §1
# [33] = molecular target: CKAP4, Q07065
# Method: as §1
# [34] = molecular target: EIF3G, O75821
# Method: as §1
# [35] = molecular target: EIF5A, P63241
# Method: as §1
# [36] = molecular target: FTSJ3, Q8IY81
# Method: as §1
# [37] = molecular target: GATA6, Q92908
# Method: as §1
# [38] = molecular target: GTF3C4, Q9UKN8
# Method: as §1
# [39] = molecular target: HNRNPA3, P51991
# Method: as §1
# [40] = molecular target: HNRNPAB, Q99729
# Method: as §1
# [41] = molecular target: MRPS6, P82932
# Method: as §1
# [42] = molecular target: NAA10, P41227
# Method: as §1
# [43] = molecular target: NUFIP2, Q7Z417
# Method: as §1
# [44] = molecular target: P4HB, P07237
# Method: as §1
# [45] = molecular target: PFKM, P08237
# Method: as §1
# [46] = molecular target: PPIL1, Q9Y3C6
# Method: as §1
# [47] = molecular target: PRPF40A, O75400
# Method: as §1
# [48] = molecular target: RBM28, Q9NW13
# Method: as §1
# [49] = molecular target: RBM38, Q9H0Z9
# Method: as §1
# [50] = molecular target: RBPMS, Q93062
# Method: as §1
# [51] = molecular target: RPS3, P23396
# Method: as §1
# [52] = molecular target: SEC61G, P60059
# Method: as §1
# [53] = molecular target: SMARCAD1, Q9H4L7
# Method: as §1
# [54] = molecular target: TMEM256-PLSCR3
# Method: as §1
# [55] = molecular target: TRAF7, Q6Q0C0
# Method: as §1
# [56] = molecular target: TXNDC5, Q8NBS9
# Method: as §1
# [57] = molecular target: WDR5, P61964
# Method: as §1
binder,measurement,setting,value
HSVIFPLRKLRLEEG [PDZRN3-AS1],PRISMA enrichment of interactor (log2),[1],5.92
same,PRISMA enrichment of interactor (log2),[2],4.32
same,PRISMA enrichment of interactor (log2),[3],7.41
same,PRISMA enrichment of interactor (log2),[4],5.16
same,PRISMA enrichment of interactor (log2),[5],4.72
same,PRISMA enrichment of interactor (log2),[6],6.07
same,PRISMA enrichment of interactor (log2),[7],5.93
same,PRISMA enrichment of interactor (log2),[8],6.44
same,PRISMA enrichment of interactor (log2),[9],4.93
same,PRISMA enrichment of interactor (log2),[10],5.46
same,PRISMA enrichment of interactor (log2),[11],7.37
same,PRISMA enrichment of interactor (log2),[12],4.76
same,PRISMA enrichment of interactor (log2),[13],5.14
same,PRISMA enrichment of interactor (log2),[14],5.12
same,PRISMA enrichment of interactor (log2),[15],5.48
same,PRISMA enrichment of interactor (log2),[16],5.21
same,PRISMA enrichment of interactor (log2),[17],5.26
GVCHSRLKDVFEELL [RP11-140K17.3],PRISMA enrichment of interactor (log2),[18],5.73
same,PRISMA enrichment of interactor (log2),[19],4.76
same,PRISMA enrichment of interactor (log2),[20],9
same,PRISMA enrichment of interactor (log2),[21],4.69
same,PRISMA enrichment of interactor (log2),[22],5.07
same,PRISMA enrichment of interactor (log2),[23],6.07
same,PRISMA enrichment of interactor (log2),[24],5.71
same,PRISMA enrichment of interactor (log2),[25],4.7
same,PRISMA enrichment of interactor (log2),[26],4.25
same,PRISMA enrichment of interactor (log2),[27],5.45
same,PRISMA enrichment of interactor (log2),[28],5.36
same,PRISMA enrichment of interactor (log2),[29],6.23
same,PRISMA enrichment of interactor (log2),[30],6.4
LREMSMDSQLVWRLL [NAV2-AS2],PRISMA enrichment of interactor (log2),[1],4.56
same,PRISMA enrichment of interactor (log2),[31],4.46
same,PRISMA enrichment of interactor (log2),[32],6.35
same,PRISMA enrichment of interactor (log2),[33],5.61
same,PRISMA enrichment of interactor (log2),[34],7.35
same,PRISMA enrichment of interactor (log2),[35],4.55
same,PRISMA enrichment of interactor (log2),[36],5.32
same,PRISMA enrichment of interactor (log2),[37],5.22
same,PRISMA enrichment of interactor (log2),[38],3.93
same,PRISMA enrichment of interactor (log2),[39],6.31
same,PRISMA enrichment of interactor (log2),[40],5.78
same,PRISMA enrichment of interactor (log2),[41],4.32
same,PRISMA enrichment of interactor (log2),[42],5.36
same,PRISMA enrichment of interactor (log2),[43],6.25
same,PRISMA enrichment of interactor (log2),[44],4.48
same,PRISMA enrichment of interactor (log2),[45],4.9
same,PRISMA enrichment of interactor (log2),[46],5.11
same,PRISMA enrichment of interactor (log2),[47],4.38
same,PRISMA enrichment of interactor (log2),[48],4.58
same,PRISMA enrichment of interactor (log2),[49],5.23
same,PRISMA enrichment of interactor (log2),[50],5.84
same,PRISMA enrichment of interactor (log2),[51],6.61
same,PRISMA enrichment of interactor (log2),[52],4.66
same,PRISMA enrichment of interactor (log2),[53],5.08
same,PRISMA enrichment of interactor (log2),[54],4.68
same,PRISMA enrichment of interactor (log2),[55],4.85
same,PRISMA enrichment of interactor (log2),[56],7.97
same,PRISMA enrichment of interactor (log2),[57],7.96

# Reformatted: entries from further up.
binder | measurement | setting | value
LREMSMDSQLVWRLL [NAV2-AS2] | PRISMA enrichment of interactor (log2) | [42] | 5.36
same | PRISMA enrichment of interactor (log2) | [43] | 6.25
same | PRISMA enrichment of interactor (log2) | [44] | 4.48
same | PRISMA enrichment of interactor (log2) | [45] | 4.9
same | PRISMA enrichment of interactor (log2) | [46] | 5.11
same | PRISMA enrichment of interactor (log2) | [47] | 4.38
same | PRISMA enrichment of interactor (log2) | [48] | 4.58
same | PRISMA enrichment of interactor (log2) | [49] | 5.23
same | PRISMA enrichment of interactor (log2) | [50] | 5.84
same | PRISMA enrichment of interactor (log2) | [51] | 6.61
same | PRISMA enrichment of interactor (log2) | [52] | 4.66
same | PRISMA enrichment of interactor (log2) | [53] | 5.08
same | PRISMA enrichment of interactor (log2) | [54] | 4.68
same | PRISMA enrichment of interactor (log2) | [55] | 4.85
same | PRISMA enrichment of interactor (log2) | [56] | 7.97
same | PRISMA enrichment of interactor (log2) | [57] | 7.96
